Experimental data from PubChem BioAssay AID493014 (National Center for Advancing Translational Sciences (NCATS), 2011).
The campaign covered roughly 340,000 compounds. About 170 (0.05%) were called active. This list was built around the results that the source calls inconclusive (neither active nor inactive); the mix of calls is not that of the screen. Calls come from the whole dose curve; as a rule, active = well fitted inhibition curve with a large enough effect in the signal ratio, with a control signal flat (not every such curve was filed as active); inconclusive = small, poorly fitted or top-dose-only effect, or effect the other way, or a change in a side signal; inactive = flat fitted curve, though single readings scatter; the % refers to the signal ratio. Potencies beside an inconclusive call are fits to weak or partial responses and may not hold up.

Experiment: qHTS Assay to Find Inhibitors of Chronic Active B-Cell Receptor Signaling;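 for activity change, negative = inhibition: plate controls were basal doxycycline-induced cells for no effect and cells given 10 µM MG132 for full effect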
Details: ABC-DLBCL IkBa-CBG/CBR reporter, luminescence ratio (green luciferase fused to IkBa over red control in TMD8 lymphoma cells), 4 h; activity change, negative = inhibition: at 46.1 µM (top of the series)
Method in brief: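 Compounds up to 46 uM were incubated four hours with TMD8 cells whose green CBG68 luciferase is fused to IkappaBalpha; red CBR luminescence normalised the signal, and concentration-effect curves were fitted to fusion, red and ratio data.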
Potency is the fitted concentration of half-maximal effect.

Row | Compound | activity change, negative = inhibition | Potency
1 | C[C@]12c3[nH]c4ccccc4c3CCN1C(=O)C(CC(=O)NCc1ccco1)C[C@@H]2C(=O)N1CCCCC1 (stereo partly specified) | inactive: -6.02% | –
2 | CC1CCc2c(sc(Nc3nc4c(F)cccc4s3)c2C(N)=O)C1 (stereo unspecified) | inconclusive: 0.012% | –
3 | Nc1ncnc2c1ncn2[C@@H]1O[C@H](CNCc2ccccc2OCc2ccc(Cl)cc2Cl)[C@@H](O)[C@H]1O | – | inconclusive: 18.4 µM [falling, single point]
4 | CN(CC(=O)NCc1cccs1)S(=O)(=O)c1cccc2cccnc12 | inactive: -12.6% | –
5 | COc1ccccc1/C=C/C(=O)Nc1ccc(N2CCOCC2)cc1 | inconclusive: -8.15% | –
6 | Nc1c(C(=O)NCc2ccco2)sc2nc3c(cc12)C(=O)CCC3 | – | inconclusive: 18.4 µM [rising, single point]
7 | COC(=O)c1ccc(N=NNc2ccccc2)cc1 | – | inconclusive: 20.6 µM [falling, single point]
8 | Clc1ccc(OCc2nc(-c3ccccn3)no2)c(Br)c1 | inactive: -21.2% | –
9 | O=[N+]([O-])c1ccc(O)c(C=Nc2ccc3c(c2)OCCO3)c1 | – | inconclusive: 18.4 µM [falling, partial curve]
10 | NC(=O)CCn1c(C(=O)c2cc(Cl)c(N)c(Cl)c2)c2ccccc2[n+]1[O-] | inconclusive: -0.424% | –
11 | CCOC(=O)c1csc(-c2snnc2C)n1 | inconclusive: 8.36% | –
12 | Cc1cccc(N2C(=O)CS/C2=N\NC(=O)c2ccc(Cl)cc2)c1C | inconclusive: -22.3% | –
13 | COc1cccc(C(=O)NNC(=O)/C=C/c2ccccc2)c1 | – | inconclusive: 8.91 µM [falling, partial curve]
14 | COc1ccc(CCn2c(C(C)C)nc3oc4ccccc4c(=O)c3c2=O)cc1 | inconclusive: -13.8% | –
15 | CCOc1ccc(-c2ccc(SCC(=O)N3CCN(c4ccccc4)CC3)nn2)cc1 | inactive: -3.93% | –
16 | CC(=O)Cn1ncc(N2CCOCC2)cc1=O | inconclusive: -15.9% | –
17 | CCn1c2ccccc2c2cc(NC(=O)c3ccccc3-c3ccccc3C(=O)O)ccc21 | inconclusive: -15% | –
18 | CSCCC(NC(=O)c1ccco1)C(=O)NCc1ccc(F)cc1 (stereo unspecified) | inconclusive: 11.7% | –
19 | Cc1ccc(SCc2ccc(C(=O)Nc3cc([N+](=O)[O-])ccc3C)cc2)cc1 | – | inconclusive: 5.01 µM [falling, partial curve, poor fit]
20 | COc1cc2sc(-c3ccc(S(C)(=O)=O)cc3)c(C#CCO)c2cc1OC | – | inconclusive: 18.4 µM [falling, single point]
21 | CC(=O)c1ccc(Nc2cc(C)nc3c(C)cccc23)cc1 | – | inconclusive: 6.31 µM [rising, full curve]

Single values from the list.
activity change, negative = inhibition, `Cc1cccc(N2C(=O)CS/C2=N\NC(=O)c2ccc(Cl)cc2)c1C` is entered as inconclusive: -22.3%
activity change, negative = inhibition, `NC(=O)CCn1c(C(=O)c2cc(Cl)c(N)c(Cl)c2)c2ccccc2[n+]1[O-]` is entered as inconclusive: -0.424%
